# In publication PMC2672601:
# These are yes or no findings as the source states them, for the method shown. Binding seen in cells or lysates may run through a third protein. A yes stands for co-enrichment or nearness to the bait. Other partners may have been found. Sequences can lack the tags named with a protein.
# T1: VGluRδ2 (fusion between Venus and the glutamate receptor delta2, GluRδ2) (UniProt Q61625)
# T1 sequence: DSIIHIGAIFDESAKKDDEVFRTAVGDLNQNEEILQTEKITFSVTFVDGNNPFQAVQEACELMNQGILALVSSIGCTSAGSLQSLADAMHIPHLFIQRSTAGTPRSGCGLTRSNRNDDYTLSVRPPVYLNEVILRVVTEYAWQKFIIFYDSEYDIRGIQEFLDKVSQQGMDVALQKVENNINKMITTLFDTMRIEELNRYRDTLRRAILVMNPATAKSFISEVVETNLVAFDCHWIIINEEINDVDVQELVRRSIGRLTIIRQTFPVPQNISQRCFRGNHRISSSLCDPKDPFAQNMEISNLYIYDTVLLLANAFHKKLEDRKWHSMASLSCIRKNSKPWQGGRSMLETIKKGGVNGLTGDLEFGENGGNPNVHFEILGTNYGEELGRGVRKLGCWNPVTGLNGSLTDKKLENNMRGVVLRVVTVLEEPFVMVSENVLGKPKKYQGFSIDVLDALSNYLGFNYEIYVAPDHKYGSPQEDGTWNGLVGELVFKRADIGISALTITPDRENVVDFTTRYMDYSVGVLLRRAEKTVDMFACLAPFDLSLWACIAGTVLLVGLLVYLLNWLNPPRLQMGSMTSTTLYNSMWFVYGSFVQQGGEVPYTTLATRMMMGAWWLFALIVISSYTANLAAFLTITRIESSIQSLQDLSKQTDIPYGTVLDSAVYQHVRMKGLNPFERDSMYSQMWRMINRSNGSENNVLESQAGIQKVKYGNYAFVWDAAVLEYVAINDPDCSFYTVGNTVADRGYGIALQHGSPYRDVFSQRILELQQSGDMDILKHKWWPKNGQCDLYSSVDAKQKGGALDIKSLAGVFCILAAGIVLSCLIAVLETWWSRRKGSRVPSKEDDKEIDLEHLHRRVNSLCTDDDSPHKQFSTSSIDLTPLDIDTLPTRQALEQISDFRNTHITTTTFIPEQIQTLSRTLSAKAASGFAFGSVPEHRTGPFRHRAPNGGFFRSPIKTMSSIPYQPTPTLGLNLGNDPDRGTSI
# Biological target: T1, VGluRδ2 (fusion between Venus and the glutamate receptor delta2, GluRδ2)
# Experiment: affinity purification with mass spectrometry; same anti-GFP affinity purification of pooled synaptic fractions (samples pooled from 30 and from 50 Pcp2/VGluRδ2 cerebella); SDS-PAGE, in-gel trypsin digestion, MALDI QqTOF MS and MALDI-IT MS/MS; control isolates from Pcp2/eGFP mice
row,binding,Binder
1,binds,"Shank2 (protein, UniProt Q80Z38 1-1476) MKSLLNAFTKKEVPFREAPAYSNRRRRPPNTLAAPRVLLRSNSDNNLNAGAPEWAVCSAATSHRSLSPQLLQQTPSKPDGATKSLGSYTPGPRSRSPSLNRLGGTAEDGKRTQPHWHVGSPFTPGANKDSLSTFEYPGPRRKLYSAVPGRLFVAVKPYQPQVDGEIPLHRGDRVKVLSIGEGGFWEGSARGHIGWFPAECVEEVQCKPRDSQAETRADRSKKLFRHYTVGSYDSFDAASDCIIEDKTVVLQKKDNEGFGFVLRGAKADTPIEEFTPTPAFPALQYLESVDEGGVAWQAGLRTGDFLIEVNNENVVKVGHRQVVNMIRQGGNHLILKVVTVTRNLDPDDTARKKAPPPPKRAPTTALTLRSKSMTAELEELGLSLVDKASVRKKKDKPEEIVPASKPSRTAENVAIESRVATIKQRPTSRCFPAASDVNSVYERQGIAVMTPTVPGSPKGPFLGLPRGTMRRQKSIDSRIFLSGITEEERQFLAPPMLKFTRSLSMPDTSEDIPPPPQSVPPSPPPPSPTTYNCPRSPTPRVYGTIKPAFNQNPVVAKVPPATRSDTVATMMREKGMFYRRELDRFSLDSEDVYSRSPAPQAAFRTKRGQMPENPYSEVGKIASKAVYVPAKPARRKGVLVKQSNVEDSPEKTCSIPIPTIIVKEPSTSSSGKSSQGSSMEIDPQATEPGQLRPDDSLTVSSPFAAAIAGAVRDREKRLEARRNSPAFLSTDLGDEDVGLGPPAPRMQASKFPEEGGFGDEDETEQPLLPTPGAAPRELENHFLGGGEAGAQGEAGGPLSSTSKAKGPESGPAAPLKSSSPAGPENYVHPLTGRLLDPSSPLALALSARDRAMQESQQGHKGEAPKADLNKPLYIDTKMRPSVESGFPPVTRQNTRGPLRRQETENKYETDLGKDRRADDKKNMLINIVDTAQQKSAGLLMVHTVDVPMAGPPLEEEEDREDGDTKPDHSPSTVPEGVPKTEGALQISAAPEPAVAPGRTIVAAGSVEEAVILPFRIPPPPLASVDLDEDFLFTEPLPPPLEFANSFDIPDDRAASVPALADLVKQKKNDTSQPPTLNSSQPANSTDSKKPAGISNCLPSSFLPPPESFDAVTDSGIEEVDSRSSSDHHLETTSTISTVSSISTLSSEGGESMDTCTVYADGQAFVVDKPPVPPKPKMKPIVHKSNALYQDTLPEEDTDGFVIPPPAPPPPPGSAQAGVAKVIQPRTSKLWGDVPEVKSPILSGPKANVISELNSILQQMNRGKSVKPGEGLELPVGAKSANLAPRSPEVMSTVSGTRSTTVTFTVRPGTSQPITLQSRPPDYESRTSGPRRAPSPVVSPTELSKEILPTPPPPSATAASPSPTLSDVFSLPSQSPAGDLFGLNPAGRSRSPSPSILQQPISNKPFTTKPVHLWTKPDVADWLESLNLGEHKETFMDNEIDGSHLPNLQKEDLIDLGVTRVGHRMNIERALKQLLDR"
2,binds,"annexin A6 (protein, UniProt P14824 1-673) MAKIAQGAMYRGSVHDFPEFDANQDAEALYTAMKGFGSDKESILELITSRSNKQRQEICQNYKSLYGKDLIEDLKYELTGKFERLIVNLMRPLAYCDAKEIKDAISGVGTDEKCLIEILASRTNEQMHQLVAAYKDAYERDLESDIIGDTSGHFQKMLVVLLQGTRENDDVVSEDLVQQDVQDLYEAGELKWGTDEAQFIYILGNRSKQHLRLVFDEYLKTTGKPIEASIRGELSGDFEKLMLAVVKCIRSTPEYFAERLFKAMKGLGTRDNTLIRIMVSRSELDMLDIREIFRTKYEKSLYSMIKNDTSGEYKKALLKLCGGDDDAAGQFFPEAAQVAYQMWELSAVSRVELKGTVCAANDFNPDADAKALRKAMKGIGTDEATIIDIVTHRSNAQRQQIRQTFKSHFGRDLMADLKSEISGDLARLILGLMMPPAHYDAKQLKKAMEGAGTDEKTLIEILATRTNAEIRAINEAYKEDYHKSLEDALSSDTSGHFRRILISLATGNREEGGENRDQAQEDAQVAAEILEIADTPSGDKTSLETRFMTVLCTRSYPHLRRVFQEFIKKTNYDIEHVIKKEMSGDVKDAFVAIVQSVKNKPLFFADKLYKSMKGAGTDEKTLTRVMVSRSEIDLLNIRREFIEKYDKSLHQAIEGDTSGDFMKALLALCGGED"
3,binds,"synaptojanin 2 (enzyme, UniProt Q9D2G5 1-1434) MALSKGLRLLARLDPTGPSSVLLEARGRGDCLLFEAGAVATLAPEEKEVIKGLYSKLTDAYGCLGELRLQSGGVPLSFLVLVTGCMSVGRIPDAEIYKITATELYPLQEEAKEEDRLPTLKKILSSGVFYFAWPNDGACFDLTIRAQKQGDDGSEWGTSFFWNQLLHVPLRQHQVNCHNWLLKVICGVVTIRTVYASHKQAKACLISRISCERAGARFLTRGVNDDGHVSNFVETEQTIYMDDGVSSFVQIRGSVPLFWEQPGLQVGSHHLRLHRGLEANAPAFERHMVLLKEQYGKQVVVNLLGSRGGEEVLNRAFKKLLWASCHAGDTPMINFDFHQFAKGRKLEKLENLLRPQLQLHWEDFGVFAKGENVSPRFQKGTLRMNCLDCLDRTNTVQCFIALEVLHLQLESLGLNSKPIIDRFVESFKAMWSLNGHSLSKVFTGSRALEGKAKVGKLKDGARSMSRTIQSNFFDGVKQEAIKLLLVGDVYNEESTDKGRMLLDNTALLATPRILKAMTERQSEFTNFKRIQIAVGTWNVNGGKQFRSNLLGTAELTDWLLDAPQLSGAVDSQDDGSPADVFAIGFEEMVELSAGNIVNASTTNRKMWGEQLQKAISRSHRYILLTSAQLVGVCLYIFVRPYHVPFIRDVAIDTVKTGMGGKAGNKGAVGIRFQLHSTSFCFVCSHLTAGQSQVKERNEDYREITHKLSFPSGRNIFSHDYVFWCGDFNYRIDLTYEEVFYFVKRQDWKKLMEFDQLQLQKSSGKIFKDFHEGAVNFGPTYKYDVGSAAYDTSDKCRTPAWTDRVLWWRKKHPYDKTAGELNLLDSDLDGDPQIRHTWSPGTLKYYGRAELQASDHRPVLAIVEVEVQEVDVGARERVFQEVSSVQGPLDATVVVNLQSPTLEEKNEFPEDLRTELMQTLGNYGTIILVRINQGQMLVTFADSHSALSVLDVDGMKVKGRAVKIRPKTKDWLEGLREELLRKRDSMAPVSPTANSCLLEENFDFSSLDYESEGDVLEEDEDYLVDGFGQPVVSDSELGGDNSSDTMSSLTPASKSPALAKKKQHPTYKAGLMVKKSASDASISSGTHGQYSILQTAKLLPGAPQQPPKARTGISKPYNVKQIKTTNAQEAEAAIRCLLEASGGVPESAPGAIPLRNQGSSKPEATLGPPALPRRPAPRVPTMKKPTLRRTGKPMLPEENFEPQPVHFTMASQEMNLETPPPITATPIPPVPKPRTLQPGKGVEGRPSSGKPEPDEAPSVTGTVESPPPEAQEAPSLAPKVPPRRKKSAPAAFHLQVLQNNSQVLQGLTCSSSSPPSLKPDTHPLCLQVALGTSSARSPETHGPRVTEPEAASFHGNYPDPFWSLLHHPKLLNNTWLSKSSEPLDVGSRNPERTHTEPAQVNASLAERGLPPDHGGKDLSHWVTASNKDKRTTLGV"
4,binds,"Plekha7 (protein, UniProt Q3UIL6 1-1118) MAAAVGRDTLPEHWSYGVCRDGRVFFINDQLRCTTWLHPRTGEPVNSGHMIRSDLPRGWEEGFTEEGASFFIDHNQQTTTFRHPVTGQFSSENSEYVLREEPHPHMSKPERNQRPSSMVSETSTAGTTSTLEAKPGPKIVKSSSKVHSFGKRDQAIRRNLNVPVVVRGWLHKQDSSGMRLWKRRWFVLADYCLFYYKDSREEAVLGSIPLPSYVISPVAPEDRISRKYSFKAVHTGMRALIYSTTTAGSQMEHSGMRTYYFSADTLEDMNAWVRAMNQAAQVLSRSSLRRDVDKVERQAMPQANHTDACQECGHVGPGHSRDCPRRGYEDSYGFNRREQEEERFRAQRDPLEGRRDRSKARSPYLPAEEDALFVDLPGGPRGQQAQPQRAEKNGVPPYGLGEQNGTNGYQRTAPPRANPEKHSQRKTGLAQAEHWTKAQKGDGRSLPLDQTLPRQGPSQPLSFPENYQSLPKSTRHLSGSSSPPPRNLPSDYKYAQDRASHLKMSSEERRAHRDGTVWQLYEWQQRQQFRHGSPTAPIGAGSPEFTEQGRSRSLLEVPRSISVPPSPSDIPPPGPPRPFPPRRPHTPAERVTVKPPEQRRSVDISLGGSPRKARGHAAKNSSHVDRRSMPSMGYMTHTVSAPSLHGKSADDTYLQLKKDLEYLDLKMTGRDLLKDRSLKPMKIAESDIDVKLSIFCEQDRILQDLEDKIRALKENKDQLESVLEVLHRQTEQYRDQPQHLEKITCQQRLLQEDLVHIRAELCRESTEMENAWNEYLKLEKDVEQLKQTLQEQHRRAFFFQEKSQIQKDLWRIEDVMAGLSANKENYRVLVGSVKNPERKTVPLFPHPSVPSLSPTESKPALQPSPPTSPVRTPLEVRLFPQLQTYVPYRPHPPQLRKVMSPLQSPTKAKPQAEDEAPPRPPLPELYSPEDQPPAVPPLPREATIIRHTSVRGLKRQSDERKRDREQGQCVNGDLKVELRSYVSEPELASLSGDVPQPSLSLVGSESRYQTLPGRGLSGSTSRLQQSSTIAPYVTLRRGLNAENSSATFSRPKSALERLYSGDHQRGKMSAEEQLERMKRHQKALVRERKRTLSQGEKTGLLSARYLSQPLPGDLGSVC"
